Measured values as given in patent CN103333249A.
These are yes or no findings as the source states them, for the method shown. Some binding calls cover weakened binding; strength is not graded here.

Protein sequences, listed by entry. Tags and fused reporters are not part of them. Residues count along the entry.
UniProt Q04609, residues 44-750: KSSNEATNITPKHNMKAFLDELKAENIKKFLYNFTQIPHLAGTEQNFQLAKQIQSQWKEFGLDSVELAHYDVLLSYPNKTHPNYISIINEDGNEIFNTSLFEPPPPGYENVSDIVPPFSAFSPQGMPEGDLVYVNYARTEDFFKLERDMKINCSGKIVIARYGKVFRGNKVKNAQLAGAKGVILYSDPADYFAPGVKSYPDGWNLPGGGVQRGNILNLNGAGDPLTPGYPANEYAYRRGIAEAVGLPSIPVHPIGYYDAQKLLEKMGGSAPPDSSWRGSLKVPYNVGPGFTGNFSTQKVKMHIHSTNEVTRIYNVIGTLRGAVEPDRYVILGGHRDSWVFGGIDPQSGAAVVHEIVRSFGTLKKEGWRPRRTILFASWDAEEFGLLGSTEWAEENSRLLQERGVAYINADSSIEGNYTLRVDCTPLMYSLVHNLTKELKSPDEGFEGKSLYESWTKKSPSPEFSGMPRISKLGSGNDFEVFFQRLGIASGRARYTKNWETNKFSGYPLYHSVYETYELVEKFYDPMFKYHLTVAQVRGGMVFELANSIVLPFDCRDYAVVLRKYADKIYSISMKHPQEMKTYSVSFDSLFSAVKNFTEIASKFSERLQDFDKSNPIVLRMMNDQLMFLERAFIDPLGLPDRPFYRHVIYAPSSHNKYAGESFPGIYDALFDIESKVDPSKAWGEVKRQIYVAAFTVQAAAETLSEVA

Columns and labels:
[1] = biological target: 重组PSMA蛋白 expressed in E. coli (pDEST17-PSMA) (human) (UniProt Q04609); test: Western blot of recombinant PSMA expressed in E. coli
[2] = biological target: 重组PSMA蛋白 expressed in HEK293 EBNA cells (pTT5-PSMA) (human) (UniProt Q04609); test: Western blot of recombinant PSMA expressed in HEK293 cells

B1: 单克隆抗体mAb L-186 (antibody, V domains shown)
VH: QVQLKQSGPGLVQPSQSLSITCTVSGFSLTNYGLHWVRQSPGKGLEWLGVIWKGGDTDYNVPFMSRLSITRDNSKSQVFFKMNTLQADDTAIYFCALPFYGTPGFAYWGQGTLVTVSA
VL: DIVMTQSHKFMSTSVGDRVSITCKASQDVGTAVAWYQQKPGQSPRLLIYWASTRHTGVPDRFTGSGSGTDFTLTISNVQSEDLTDYFCQQYNSYPFTFGSGTELEIKR
binding [1]: binds
binding [2]: binds
